# Data taken from the supplement of paper PMC8728848.
# Some of the results follow.
# B1: 4F2hc (Homo sapiens), P08195 (protein)
# chain: WWHTGALYRIGDLQAFQGHGAGNLAGLKGRLDYLSSLKVKGLVLGPIHKNQKDDVAQTDLLQIDPNFGSKEDFDSLLQSAKKKSIRVILDLTPNYRGENSWFSTQVDTVATKVKDALEFWLQAGVDGFQVRDIENLKDASSFLAEWQNITKGFSEDRLLIAGTNSSDLQQILSLLESNKDLLLTSSYLSDSGSTGEHTKSLVTQYLNATGNRWCSWSLSQARLLTSFLPAQLLRLYQLMLFTLPGTPVFSYGDEIGLDAAALPGQPMEAPVMLWDESSFPDIPGAVSANMTVKGQSEDPGSLLSLFRRLSDQRSKERSLLHGDFHAFSAGPGLFSYIRHWDQNERFLVVLNFGDVGLSAGLQASDLPASASLPAKADLLLSTQPGREEGSPLELERLKLEPHEGLLLRFPYAA
# Key:
# Assay in all cases: glycan array binding signal (z-score within array); higher = stronger binding
# Details in all cases: glycan notation: IUPAC condensed, linker removed
# [1] = biological target: Neu5Ac(a2-6)GalNAc
# How it was run: (§1)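 Columns mapping to the same glycan were averaged after glycan names were converted to IUPAC-condensed notation. The data come from 3228 arrays in the Consortium for Functional Glycomics database, limited to those with an available protein sequence. Binding is reported as a within-array Z-score averaged across arrays of one protein sequence and across linkers.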
# [2] = biological target: Neu5Ac(a2-6)GalNAc(b1-4)GlcNAc
# How it was run: as §1
# [3] = biological target: Neu5Ac(a2-6)GlcNAc(b1-4)GlcNAc
# How it was run: as §1
# [4] = biological target: Neu5Ac(a2-6)GlcNAc(b1-4)GlcNAc(b1-4)GlcNAc
# How it was run: as §1
# [5] = biological target: Neu5Ac(a2-8)Neu5Ac
# How it was run: as §1
# [6] = biological target: Neu5Ac(a2-8)Neu5Ac(a2-3)Gal(b1-4)Glc
# How it was run: as §1
# [7] = biological target: Neu5Ac(a2-8)Neu5Ac(a2-3)[GalNAc(b1-4)]Gal(b1-4)Glc
# How it was run: as §1
# [8] = biological target: Neu5Ac(a2-8)Neu5Ac(a2-8)Neu5Ac
# How it was run: as §1
# [9] = biological target: Neu5Ac(a2-8)Neu5Ac(a2-8)Neu5Ac(a2-3)Gal(b1-4)Glc
# How it was run: as §1
# [10] = biological target: Neu5Ac(a2-8)Neu5Ac(a2-8)Neu5Ac(a2-3)[GalNAc(b1-4)]Gal(b1-4)Glc
# How it was run: as §1
# [11] = biological target: Neu5Ac(a2-8)Neu5Ac(a2-8)Neu5Ac(a2-8)Neu5Ac(a2-3)[GalNAc(b1-4)]Gal(b1-4)Glc
# How it was run: as §1
# [12] = biological target: Neu5Ac(b2-6)Gal(b1-4)GlcNAc
# How it was run: as §1
# [13] = biological target: Neu5Ac(b2-6)GalNAc
# How it was run: as §1
# [14] = biological target: Neu5Ac9Ac(a2-3)Gal(b1-3)GlcNAc
# How it was run: as §1
# [15] = biological target: Neu5Ac9Ac(a2-3)Gal(b1-4)GlcNAc
# How it was run: as §1
# [16] = biological target: Neu5Ac9Ac(a2-6)Gal(b1-4)GlcNAc
# How it was run: as §1
# [17] = biological target: Neu5Gc(a2-3)Gal(b1-3)GlcNAc
# How it was run: as §1
# [18] = biological target: Neu5Gc(a2-3)Gal(b1-3)[Fuc(a1-4)]GlcNAc
# How it was run: as §1
# [19] = biological target: Neu5Gc(a2-3)Gal(b1-4)Glc
# How it was run: as §1
# [20] = biological target: Neu5Gc(a2-3)Gal(b1-4)GlcNAc
# How it was run: as §1
# [21] = biological target: Neu5Gc(a2-3)Gal(b1-4)[Fuc(a1-3)]GlcNAc
# How it was run: as §1
# [22] = biological target: Neu5Gc(a2-6)Gal(b1-4)GlcNAc
# How it was run: as §1
# [23] = biological target: Neu5Gc(a2-6)GalNAc
# How it was run: as §1
# [24] = biological target: Neu5Gc(b2-6)Gal(b1-4)GlcNAc
# How it was run: as §1
binder,measurement,setting,value
B1,glycan array binding signal (z-score),[1],0.974
same,glycan array binding signal (z-score),[2],-0.846
same,glycan array binding signal (z-score),[3],-1.02
same,glycan array binding signal (z-score),[4],-0.956
same,glycan array binding signal (z-score),[5],0.293
same,glycan array binding signal (z-score),[6],-0.288
same,glycan array binding signal (z-score),[7],-0.55
same,glycan array binding signal (z-score),[8],-0.566
same,glycan array binding signal (z-score),[9],-0.234
same,glycan array binding signal (z-score),[10],-0.76
same,glycan array binding signal (z-score),[11],-0.064
same,glycan array binding signal (z-score),[12],-0.505
same,glycan array binding signal (z-score),[13],-0.341
same,glycan array binding signal (z-score),[14],-0.273
same,glycan array binding signal (z-score),[15],-0.22
same,glycan array binding signal (z-score),[16],0.921
same,glycan array binding signal (z-score),[17],-0.245
same,glycan array binding signal (z-score),[18],-0.292
same,glycan array binding signal (z-score),[19],0.574
same,glycan array binding signal (z-score),[20],0.349
same,glycan array binding signal (z-score),[21],-0.913
same,glycan array binding signal (z-score),[22],-0.991
same,glycan array binding signal (z-score),[23],0.027
same,glycan array binding signal (z-score),[24],0.919

# Exported with bars between the fields: entries from further up.
binder | measurement | setting | value
B1 | glycan array binding signal (z-score) | [8] | -0.566
same | glycan array binding signal (z-score) | [19] | 0.574
